# Assay results published in PubChem BioAssay AID588497 (NMMLSC, 2011).
# About 780 (0.22%) of roughly 360,000 compounds were called active. Inconclusive means that the source gave no clear call. Such entries were picked first, then a sample of the others. Rule as the data show it: active = inhibition above about 35% (passing the limit was not always enough); inconclusive = no clear call, values can overlap the other calls.
# Test system: Botulinum neurotoxin type F light chain protease (Clostridium botulinum)
# Test: BoNT/F light chain protease inhibitors, primary screen, biochemical, flow cytometry, MLPCN library (AID 588497); also: plate controls were buffer without enzyme for full effect and enzyme alone for no effect
# Details: Multiplex microsphere protease cleavage assay, at 10 µM, hits give high values
row,Compound,inhibition
1,CS(=O)(=O)c1ccc(-c2nnn(CC(=O)N3CCCCC3)n2)cc1,inconclusive: -3.5%
2,Cc1cc(Br)ccc1NC(=O)CNC(=O)CSc1n[nH]c(N)n1,active: 40%
3,COc1ccc(S(=O)(=O)Cc2ccccc2)cc1N,inactive: -4.7%
4,CC(C)(C)OC(=O)N1CCCN(C(=O)Nc2ccc(C(F)(F)F)cc2)CC1,inconclusive: 30.2%
5,O=C(Nc1ccccc1)N1CCCN(c2c(Cl)cncc2Cl)CC1,inconclusive: -2.8%
6,Cc1ccc(NNC(=O)c2c(F)cccc2Cl)cc1Cl,inconclusive: 24.2%
7,CCn1c(SCC(=O)NCc2ccco2)nnc1C(C)C,inactive: -22.1%
8,CC(C)c1ccc(S(=O)(=O)c2cnc(=S)[nH]c2N)cc1,active: 37.3%
9,CSc1c(-c2ccccn2)c(N)nn1C(=O)C1CC1,inconclusive: -10.2%
10,COc1ccc2c(C)cc(SCC(=O)N3CCOCC3)nc2c1,active: 36.1%
11,CCOc1ccc(N=CC2=C(O)CC(C)(C)CC2=O)cc1,inactive: -1.6%
12,CCN1C(=O)[C@@H]2[C@@H](c3ccc(-c4ccc(F)cc4)c(OC)c3)N3CCC[C@@]3(C(=O)OC)[C@@H]2C1=O,inactive: -10.8%
13,Cc1ccccc1C(=O)NC[C@@H]1CCCN2CCCC[C@H]12,inconclusive: -26.2%
14,CCOC(=O)/C(C#N)=C/c1cc2cc(C)c(C)cc2nc1Cl,inactive: -3.6%
15,COc1ccc(-c2csc(NC(=O)c3ccccc3F)n2)cc1,inconclusive: -12.2%
16,O=C1Nc2ccccc2C1Cc1ccccn1 (stereo not given),inconclusive: 76.8%
17,COc1ccc2c(c1OC)C(=O)N(c1nc(SC)n[nH]1)C2=O,inconclusive: 7.8%
18,COc1ccc(N2CC(O)=C(c3n(C)c4ccccc4[n+]3C)C2=N)cc1,inconclusive: -49.3%
19,Cc1ccc(Nc2nc(N)nc(CN3CCCCCC3)n2)cc1,inconclusive: -26.3%
20,CN1CCC(C)(C(=O)Nc2ccc3c(c2)OCCO3)C1 (stereo not given),inactive: -10.6%
21,O=[N+]([O-])c1ccc(CP(=O)(c2ccccc2)c2ccccc2)cc1,inconclusive: -21.7%
22,COC(=O)C[C@H]1c2cc(F)ccc2S(=O)(=O)N1c1ccc(N(C)C)cc1,inactive: -6.9%
23,O=C(Nc1ccc(Cl)cc1)N1CCOCC1,inconclusive: -8.2%
24,Cc1nn(-c2ccc(N3CCOCC3)nn2)c(C)c1CCC(=O)N1CCN(C)CC1,inconclusive: 26.3%

row,Compound,inhibition
1,Nc1nc(-c2c(Cl)cccc2Cl)no1,inactive: 3.6%
2,COc1cc(C(=S)N2CCOCC2)ccc1OC(=O)c1ccc(Br)cc1,inconclusive: 0.4%
3,CCOc1ccc(S(=O)(=O)N2CCCC(C(=O)NCc3cccnc3)C2)cc1 (stereo not given),inactive: -5.5%
4,O=C(NNS(=O)(=O)c1ccc(F)cc1)c1ccccc1F,inconclusive: 31.2%
5,O=C(Nc1ccc(F)cc1)c1cc2ccccc2o1,inconclusive: -12.6%
6,O=C(O)c1cccc(CN2C(=O)SC(Nc3ccccc3)C2=O)c1 (stereo not given),inconclusive: -1.2%
7,COc1cccc(NC(=O)N2CCCC2C(=O)NC23CC4CC(CC(C4)C2)C3)c1 (stereo not given),inactive: 7.2%
8,CCCCS(=O)(=O)N1CCCC(C(=O)NCCc2ccccc2)C1 (stereo not given),inconclusive: -8.3%
9,COCc1cc(C)nc2sc(C(=O)Nc3ccc(OC)cc3)c(N)c12,inconclusive: -14.3%
10,O=C(CCCc1nc(-c2ccccc2)no1)NCc1cccnc1,inactive: -8.3%
11,COc1ccc(N2C(=O)CSC23CCCCC3)cc1,inactive: -0.3%
12,CCCCCC1=C(C(=O)OC)C(C(=O)OCC)N(S(=O)(=O)C(F)(F)F)c2ccccc21 (stereo not given),inactive: 0.2%
13,CCOc1ccc(C)cc1S(=O)(=O)n1cnc2ccccc21,inconclusive: -15.3%
14,COc1ccc2c(O)c(-c3c(C)cc(C)cc3C)c(=O)[nH]c2c1,inconclusive: 40.9%
15,CCOCCCNC1=C(Cl)C(=O)c2ccccc2C1=O,inconclusive: 116%
16,Cc1nc(CN2CCC(c3ccccc3)CC2)cc(=O)[nH]1,inactive: 3.1%
17,CC(C)(C)C(=O)NNC(=O)c1cc2sccc2s1,inconclusive: 61%
18,N#Cc1cccc(C#N)c1Oc1ccc(N)cc1,inconclusive: -23.7%
19,CNc1nnc(-c2ccco2)s1,inconclusive: 30.5%
20,Cc1cc(N2CC(C(=O)O)CC2=O)ccc1Br (stereo not given),inconclusive: 2.1%
21,Cc1ccc(-c2nnc(N3CCN(C(=O)COc4cccc(C)c4)CC3)c3ccccc23)cc1,inconclusive: -18%
22,COc1cc(C(=S)N2CCOCC2)cc(OC)c1OC(=O)c1cccc(C)c1,inconclusive: -11.2%
23,C=CCn1c(=O)c2ccccc2n2c(SCC(=O)NCC)nnc12,inconclusive: -20.3%
24,Cc1cn2c(N)c(C=C3C=C(Cl)C(=O)C(Cl)=C3)c(=O)nc2s1,active: 141%

row,Compound,inhibition
1,Cc1cccc(NC(=O)CCN2CCC(C)CC2)c1,inconclusive: -30%
2,Cc1noc(C(F)(F)F)c1C(=O)NNC(=O)c1cccc(C(F)(F)F)c1,inconclusive: 69.8%
3,C[C@@H]1CN([C@@H](C)CO)C(=O)CCCn2nncc2CO[C@@H]1CN(C)C(=O)CCC(F)(F)F,inactive: 0.7%
4,CC(=O)c1ccc(Nc2nc(C)cc(C)n2)cc1,inconclusive: 23.9%
5,NC(=O)c1ccc(-c2ccccc2F)cc1,inconclusive: -61.2%
6,O=C(C(=O)c1cccnc1)c1cccnc1,inconclusive: -80.6%
7,O=C(NNC(=O)C1COc2ccccc2O1)c1ccccc1O (stereo not given),inactive: -2%
8,CCOc1ccc(-n2cnc3sc(C)c(C)c3c2=O)cc1,inconclusive: 21.4%
9,O=C(c1ccc(=O)oc1)N1CCC(C(O)(c2ccccc2)c2ccccc2)CC1,inconclusive: 19%
10,Cc1cccc(NC(=O)CN2C(=O)CCS(=O)(=O)c3ccccc32)c1C,inactive: -5.3%
11,CC(=O)c1ccccc1NS(=O)(=O)c1ccccc1Cl,inactive: -0.8%
12,O=C(NNC(=O)c1cc2cc(OC(F)(F)F)ccc2[nH]1)c1cccc(C(F)(F)F)c1,inconclusive: -9.4%
13,COc1cccc(NC(=O)c2ccccc2Br)c1,inconclusive: 39.1%
14,C=CCn1c(SCC(C)=O)nc2scc(-c3ccc(C)o3)c2c1=O,inconclusive: -7.1%
15,COc1cc2c(cc1OC)C(C)N(C(=S)Nc1ccccc1)CC2 (stereo not given),inactive: -10.8%
16,O=C(C/C=N/OCc1ccc(Cl)cc1)c1cnc(-c2ccccc2)s1,inconclusive: 3.1%
17,O=C(Nc1ccc2ccccc2n1)C1CCCCC1,inconclusive: 33.9%
18,CC(=O)Nc1ccc(S(=O)(=O)NC(C)c2ccccc2)cc1 (stereo not given),inconclusive: -15.1%
19,Oc1c(C=C2N=c3ccccc3=N2)sc(=S)n1-c1ccc2ccccc2c1,inactive: 8.5%
20,Cc1onc(-c2c(Cl)cccc2Cl)c1C(=O)O/N=C(\C#N)c1c(Cl)cccc1Cl,inconclusive: 7.9%
21,COc1ccc(OC)c(CNc2ccc3c(c2)nc(C)n3C)c1,inconclusive: 27%
22,COc1cc(CNCCCN2CCOCC2)c(Br)cc1OC(C)C,inconclusive: -9.8%
23,COc1ccc(N2C(=O)[C@@H]3[C@H](C2=O)[C@H](C(C)=O)N2c4ccccc4C=C[C@@H]32)cc1,inconclusive: -41.1%
24,Cc1cccc(C)c1NC(=O)C1CC(=O)N(C(C)C)C1 (stereo not given),active: 35%

row,Compound,inhibition
1,CC(=O)N/C(=N/c1nc(C)cc(C)n1)Nc1cccc(C)c1,inconclusive: -21.1%
2,Clc1ccc(CN2C3=NCCCN3c3ccccc32)c(Cl)c1,inconclusive: -26.9%
3,Cc1cccc(NC(=O)c2cnn(-c3ccccc3)c2C)c1C,inconclusive: 7.7%
4,O=C(CCl)N1c2ccccc2CCc2ccccc21,inconclusive: 39.7%
5,CC(=O)c1ccc(OC(C)C(=O)NCC2(N3CCOCC3)CCCCC2)cc1 (stereo not given),inactive: 7.4%
6,Cc1ccc(N=Nc2ccc(O)cc2)c(Br)c1,inconclusive: 15.7%
7,CSc1ncccc1C(=O)N1CCN(S(=O)(=O)c2ccc(C)cc2)CC1,inactive: -1.7%
8,O=C1c2ccccc2C(c2nnnn2-c2ccc3c(c2)OCCO3)N1C1CC1 (stereo not given),inactive: -4.8%
9,CC(=O)c1ccc(S(=O)(=O)Nc2ccc(C(=O)N3CCC3)cc2)cc1,active: 40.1%
10,CCOCCOc1cccc(C(=O)NC(C)c2ccc3ccccc3c2)c1 (stereo not given),inconclusive: 16.2%
11,Cc1c(C(=O)NCCSCc2c(F)cccc2Cl)cnn1-c1ccc(F)cc1,inconclusive: -49.3%
12,O=C(CN1CCc2ccccc2C1)Nc1ccccc1F,inactive: -0.4%
13,OCc1ccccc1OCCCOc1cccc2cccnc12,inconclusive: -5.8%
14,Cc1cc2nc(-c3ccccc3)cc(=O)n2[nH]1,inconclusive: -7.5%
15,O=C(c1cc(C2CC2)nn1-c1ccccc1)N1CCN(S(=O)(=O)c2cccc(F)c2)CC1,inactive: -1.6%
16,CC(C)NC(=O)C1(N2C(=O)c3ccccc3C2=O)CCCC1,inactive: -0.3%
17,COc1ccccc1N1CCN(/N=C\c2cccnc2)CC1,inconclusive: -59.3%
18,O=C(CN1CCN(c2ccc(F)cc2)CC1)NCc1ccc(Cl)cc1,inconclusive: -16.3%
19,Nc1ccc(Oc2ccc3c(c2)C(=O)NC3=O)cc1,inconclusive: 7.8%
20,CS(=O)(=O)N(CCc1ccccc1)CC(=O)N1CCc2ccccc2C1,inconclusive: 12.8%
21,Fc1ccc(C2=Nn3c(nnc3-c3ccco3)SC2)cc1,inconclusive: 0.1%
22,C(=N\NC1=Nc2cccc3cccc1c23)/c1ccccc1,inactive: -7%
23,O=C(O)c1cc2nc(-c3ccc(F)cc3)cc(C(F)(F)F)n2n1,inconclusive: -0.4%

# Look-ups from above.
# Value of OCc1ccccc1OCCCOc1cccc2cccnc12 under inhibition: inconclusive: -5.8%
# Value of Cc1c(C(=O)NCCSCc2c(F)cccc2Cl)cnn1-c1ccc(F)cc1 under inhibition: inconclusive: -49.3%

# Reformatted with bars between the fields: entries from further up.
row | Compound | inhibition
15 | COc1ccc(-c2csc(NC(=O)c3ccccc3F)n2)cc1 | inconclusive: -12.2%
16 | O=C1Nc2ccccc2C1Cc1ccccn1 (stereo not given) | inconclusive: 76.8%
